Laboratory results reported in patent US20230234996A1, “PI3K GAMMA INHIBITOR PEPTIDE FOR TREATMENT OF FIBROPROLIFERATIVE VASCULAR DISEASES” (Kither Biotech S.r.l., priority 2020, published 2023).

System: primary VSMC
Assay: Time course of peptide penetration in VSMC (FITC fluorescence)
Type: cell-based, mouse
Conditions: FITC-tagged version of the peptide
Protocol: A. Schematic representation of the cell-permeable PI3Kγ competing peptide. The 126-150 region of PI3Kγ was fused to the cell-penetrating peptide Penetratin 1 (P1). A control peptide was generated by insertion of two point mutations (K>A and R>A at position 1 and 5 of the PI3Kγ sequence, respectively). B. RAW macrophages were pre-treated with vehicle, the PI3Kγ peptide (10 μM) or the PI3Kγ kinase inhibitor AS605240 (1 μM) for 1 hour and then with C5a (50 μM) for 5 minutes. Representative Western blot images of phospho-AKT (Ser-473) and total AKT (left) and ratio quantification (right) are shown. GAPDH was used as loading control. n=3. C. Incorporation by primary VSMC of a FITC-labelled PI3Kγ peptide at 1 h, 5 h, 24 h and 30 h after incubation. D. Quantification of FITC-associated fluorescence intensity inside VSMC area.

RQIKIWFQNRRMKWKKGKATHRSPGQIHLVQRHPPSEESQAF (KIT2014) [PI3Kγ peptide, The 126-150 region of PI3Kγ fused to the cell-penetrating peptide Penetratin 1 (P1)]
time after incubation at which peptide was still detectable: 30 h
time after which peptide was detectable in cells: 5 h
